Patent US20240207434A1, “METHODS FOR PREPARING CYCLOOCTENES ANDCONJUGATES THEREOF” (Tagworks Pharmaceuticals B.V., priority 2021, published 2024)
At least one read-out could not be matched to a standard name with certainty.

Test: Reactivity of 14 axial with excess N-methylbenzylamine (HPLC-MS/PDA at different time points)
Conditions: acetonitrile, room temperature

For `O=C(O[C@@H]1/C=C/CC[C@](O)(C(=O)ON2C(=O)CCC2=O)CC1)ON1C(=O)CCC1=O` [14 axial], the “half life of the active ester towards secondary amine” value was 5 h.
